Source: ChEMBL document CHEMBL3988442, “University of Dundee, Small-Polar-MMV Screening Library” (2021).

Amino acid sequences for entries named in this document (tags omitted).
UniProt E9BF75, entry or part of it: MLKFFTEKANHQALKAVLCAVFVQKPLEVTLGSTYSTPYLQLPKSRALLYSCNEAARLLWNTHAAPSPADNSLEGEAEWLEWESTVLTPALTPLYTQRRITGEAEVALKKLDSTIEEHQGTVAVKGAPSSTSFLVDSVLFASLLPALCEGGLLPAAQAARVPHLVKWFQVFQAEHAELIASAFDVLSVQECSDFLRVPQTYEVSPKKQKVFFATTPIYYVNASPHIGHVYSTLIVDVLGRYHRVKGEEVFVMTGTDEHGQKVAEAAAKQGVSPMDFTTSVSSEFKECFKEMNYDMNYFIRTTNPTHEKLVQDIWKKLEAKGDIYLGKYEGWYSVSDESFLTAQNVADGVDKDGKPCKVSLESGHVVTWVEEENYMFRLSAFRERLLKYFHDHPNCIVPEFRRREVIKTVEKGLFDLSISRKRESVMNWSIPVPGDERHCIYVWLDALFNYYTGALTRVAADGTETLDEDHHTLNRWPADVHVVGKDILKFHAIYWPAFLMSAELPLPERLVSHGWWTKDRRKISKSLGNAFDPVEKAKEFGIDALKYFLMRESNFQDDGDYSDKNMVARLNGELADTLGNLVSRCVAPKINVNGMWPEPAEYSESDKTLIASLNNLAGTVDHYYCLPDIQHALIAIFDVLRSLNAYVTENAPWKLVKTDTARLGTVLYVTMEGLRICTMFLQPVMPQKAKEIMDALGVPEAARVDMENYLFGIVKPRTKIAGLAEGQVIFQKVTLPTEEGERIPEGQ

Results are percentages, as filed. The record does not define 0% and 100%; most values in the screen are far below 50% and negative numbers occur (in some assays of this library far below -100). This is an unselected part of the compounds tested.

Mtb heat-shock: 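Assay on Mycobacterium tuberculosis, filed only as a heat shock assay from Cornell; the read-out is not stated. The concentration is filed as 10 mM, unlikely as a test dose, so the dose is not known. Higher reads as stronger inhibition (inferred: compounds with an IC50 in retests scored well above the rest). Of about 69,000 compounds tested this way, about 930 (1.4%) reached 50% or more in at least one test.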
Mtb growth Cornell: 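Whole-cell assay for inhibitors of Mycobacterium tuberculosis growth, labelled Cornell in the record; the read-out is not stated. The concentration is filed as 10 mM, unlikely as a test dose, so the dose is not known. The record gives no direction; compounds strong in two other growth screens of this library score well above the rest, so higher reads as stronger inhibition. About 53,000 compounds were tested under these conditions; 1.7% (about 900) showed 50% or more at least once.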
LdMetRS: 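Primary screen of methionyl-tRNA synthetase; the read-out is not stated. Target: Methionyl-tRNA synthetase (putative), Leishmania donovani (UniProt E9BF75). The test concentration is not given. Values are per cent inhibition. About 68,000 compounds were tested under these conditions; 0.035% (about 24) showed 50% or more at least once.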

For CCCC(NC(=O)c1cc(C2CC2)[nH]n1)c1nnc2ccccn12 (stereo unspecified) the result was Mtb heat-shock: 15.76%; LdMetRS: 10.51%. For Cc1ccc(CN2C[C@@H]3[C@@H](C2)OCC(=O)N3Cc2ccncc2)s1 the result was LdMetRS: 3.922%. Result for O=C1COC2(COCCN(Cc3cccnc3)C2)CN1c1ccoc1 (stereo unspecified) was LdMetRS: 14.71%. For O=C(COc1cccc2c1CCC2=O)NCCSc1ccccc1 the result was Mtb heat-shock: 18.03%; Mtb growth Cornell: 21.41%; LdMetRS: 9.155%. With CNc1cc(-c2cccc(CN)c2)c2cc[nH]c2n1 the screen gave Mtb heat-shock: 27.89%; Mtb growth Cornell: 80.74%; LdMetRS: 52.96%.

c1ccc(CN2CC[C@H]3[C@H]2CCN3c2ncccn2)nc1 read LdMetRS: 8.651%. With O=C(O)C(F)(F)F.[H][C@@]12COC[C@]1([H])[C@@H](OCc1csc(C)n1)CN2C(=O)c1cnoc1C the screen gave Mtb heat-shock: 0.5494%; Mtb growth Cornell: -13.46%. With COCc1nc(C(=O)N2CCCC2c2noc(C)n2)cs1 (stereo unspecified) the screen gave Mtb heat-shock: 9.396%; Mtb growth Cornell: -28.82%; LdMetRS: 20.92%. Result for Cc1cc(C)n(CC2CN(CC(=O)Nc3ccncc3)CCO2)n1 (stereo unspecified) was Mtb heat-shock: -26.66%; Mtb growth Cornell: -1.665%; LdMetRS: 20.8%. For Cc1ccsc1CN1CCC(c2cc(C(C)C)n[nH]2)CC1 the result was Mtb heat-shock: -9.827%; Mtb growth Cornell: 12.71%; LdMetRS: 12.47%.

[H][C@]12CNC[C@@]1(C(=O)NCCOc1ccccc1)CN(S(C)(=O)=O)C2 gave Mtb heat-shock: -0.5837%. With OCC1(NCc2cnc(-c3ccccn3)s2)CCOCC1 the screen gave Mtb heat-shock: -9.294%; LdMetRS: 24.86%. Result for CC(C)NC(=O)N1CCC2(CC1)C(=O)NCCN2Cc1ccccc1 was LdMetRS: 7.778%. Result for COCCO[C@H]1COCCN(C2CCN(C)CC2)C1 was Mtb heat-shock: -37.6%; Mtb growth Cornell: -42.63%; LdMetRS: 5.263%. With O=C1CC2(CCN(Cc3cccnc3)C2)CN1c1cncnc1 (stereo unspecified) the screen gave LdMetRS: 8.242%.

With O=C(O)C(F)(F)F.O=C(O)C(F)(F)F.c1csc(CN2CCC3(COCCN(CC4CC4)C3)C2)n1 (stereo unspecified) the screen gave Mtb heat-shock: -41.47%; Mtb growth Cornell: 25.5%. With CC1=CC[C@@H]2CN(C(=O)c3ccc(-c4cc[nH]n4)cc3)C[C@@H]2C1 the screen gave LdMetRS: 7.161%. CCOC(=O)c1ccc(N2CCN(Cc3c(C)nn(C)c3Cl)CC2)nc1 read Mtb heat-shock: -8.625%; Mtb growth Cornell: 39.47%; LdMetRS: -2.507%. For Cn1cc(C2COC3(CCN(C(=O)Cn4cccn4)CC3)C2)cn1 (stereo unspecified) the result was Mtb heat-shock: 3%; Mtb growth Cornell: 18.12%; LdMetRS: 17.17%. Result for Cc1nc2c(c(NCc3cnc4c(c3)CCC4)n1)CNC2 was Mtb heat-shock: -0.2835%; Mtb growth Cornell: 4.431%; LdMetRS: 11.17%.

[H][C@@]12CCC(=O)N(CCc3c[nH]cn3)[C@]1([H])CCN(Cc1nccn1C)C2 read Mtb heat-shock: -18.78%; Mtb growth Cornell: -1.36%. For Nc1nccc(C2CCN(CCO)C2)n1 (stereo unspecified) the result was Mtb heat-shock: -14.87%; Mtb growth Cornell: -7.497%; LdMetRS: 14.56%. For Cc1nnc(N2CCCC3(CN(c4ccccn4)CCO3)C2)o1.O=C(O)C(F)(F)F (stereo unspecified) the result was Mtb heat-shock: 17.16%; Mtb growth Cornell: 7.319%. For CC(=O)N1N=C(c2ccccc2)OC1C(=O)NCCN(C(C)C)C(C)C (stereo unspecified) the result was Mtb heat-shock: 73.05%; Mtb growth Cornell: -7.967%; LdMetRS: 7.5%. Cc1nn(C)c(C)c1-c1nc2cc(S(=O)(=O)N3CCCC3)ccc2n1C read Mtb heat-shock: -6.234%; Mtb growth Cornell: 11.98%; LdMetRS: 16.27%.

Cc1nc(C(C)C)sc1C(C)N(C)C(=O)c1ccc(=O)n(C)n1 (stereo unspecified) gave Mtb heat-shock: -2.889%; Mtb growth Cornell: 26.57%; LdMetRS: 14.8%. Result for Cc1ccn(-c2ccccc2NCc2cscn2)n1 was Mtb heat-shock: -34.26%; Mtb growth Cornell: -15.7%; LdMetRS: 9.239%. With Cc1ccoc1C(=O)N1Cc2c(Cn3ccnc3)nn(C)c2C1 the screen gave LdMetRS: 7.143%. Result for [H][C@@]12CCN(c3cnccn3)C[C@@]1(C(=O)O)CCCN2Cc1ccncc1 was Mtb heat-shock: -1.349%; Mtb growth Cornell: 4.563%. Result for CCN(C(=O)CCOC)C(c1ccc(Cl)cc1)c1ccccn1 (stereo unspecified) was Mtb heat-shock: 1.016%; Mtb growth Cornell: -5.704%; LdMetRS: 10.99%.

CN(C)c1nccc(N2CCO[C@H]3CN(CC4CCOCC4)C[C@H]32)n1 read LdMetRS: 21.5%. With CCC(CO)NCc1ccc(-c2ccccc2)o1.Cl (stereo unspecified) the screen gave Mtb heat-shock: -3.714%; Mtb growth Cornell: 5.639%. With CC(C)NC(=O)c1cc2c(s1)CCN2C(=O)CN(C)C the screen gave Mtb heat-shock: -7.193%; Mtb growth Cornell: -7.202%; LdMetRS: 8.934%. Result for CC(=O)N1CCC2(C1)c1ccccc1S(=O)(=O)N2Cc1ccccc1 (stereo unspecified) was Mtb heat-shock: -6.415%; Mtb growth Cornell: -2.139%; LdMetRS: 17.79%. With COCc1cc(NCCCSc2nnc(C)s2)ncn1 the screen gave Mtb heat-shock: 5.739%; Mtb growth Cornell: 2.109%; LdMetRS: 10.3%.

CC(C)N(C)C[C@H]1OC[C@@H]2CCN(Cc3cccc(C#N)c3)C[C@@H]21 gave LdMetRS: 2.256%.

For reference, 4 entries once more:

{"compound": "O=C(O)C(F)(F)F.[H][C@@]12COC[C@]1([H])[C@@H](OCc1csc(C)n1)CN2C(=O)c1cnoc1C", "Mtb heat-shock": 0.5494, "Mtb growth Cornell": -13.46}
{"compound": "c1ccc(CN2CC[C@H]3[C@H]2CCN3c2ncccn2)nc1", "LdMetRS": 8.651}
{"compound": "CC(C)NC(=O)N1CCC2(CC1)C(=O)NCCN2Cc1ccccc1", "LdMetRS": 7.778}
{"compound": "COCc1cc(NCCCSc2nnc(C)s2)ncn1", "Mtb heat-shock": 5.739, "Mtb growth Cornell": 2.109, "LdMetRS": 10.3}